Measurements reported in PubChem BioAssay AID248 (DTP/NCI, 2004).
The list does not hold the whole screen: it is rich in T/C values a quarter to a half above the control, in often repeated tests (any T/C) and in doses without a T/C. Other doses and runs of a compound stand elsewhere. T/C: endpoint of the treated group in % of that of the vehicle group. Some doses have a count of surviving animals in place of a T/C: the source files T/C as zero there, which appears to mark a toxic dose or a test without result, not a measured value. Some survivor counts are full or nearly so, which does not show that the dose was tolerated: the source hardly ever lists a survival T/C far under the control, and the zero likely stands for such cases as well. Counts of survivors are from the toxicity check (mostly the fifth day) where no day follows; animals may have died later. Schedule codes are those of the source, taken here to give the interval after Q, in days (D) or hours (H), and the number of doses after X. Where survival is the endpoint, the PubChem record calls one and a half times the control and up active, and a quarter to a half above the control has no call in these data; cut-offs in other NCI protocols can differ. Some T/C values are followed by the survivors on the day toxicity was checked, most often the fifth; without a count, all were alive then.

Test system: L1210 leukemia ip in BDF1 mice, survival T/C
Assay: NCI In Vivo Anticancer Drug Screen. Data for tumor model L1210 Leukemia (intraperitoneal) in B6D2F1 (BDF1) mice
Details: higher T/C = longer survival
[1] = T/C endpoint: mean survival time, dose: 400.0 mg/kg/injection, schedule: Q04DX003 (ip), vehicle: saline
[2] = T/C endpoint: mean survival time, dose: 300.0 mg/kg/injection, schedule: Q01DX001 (ip), vehicle: saline
[3] = T/C endpoint: mean survival time, dose: 200.0 mg/kg/injection, schedule: Q04DX003 (ip), vehicle: saline

For C=C[CH2][Sn]([CH2]C=C)([CH2]CCC)[CH2]CCC, the survivor count (T/C endpoint: mean survival time, dose: 100.0 mg/kg/injection, schedule: Q04DX002 (ip), vehicle: saline with Tween-80) was 0 of 3, the survivor count (T/C endpoint: mean survival time, dose: 200.0 mg/kg/injection, schedule: Q04DX002 (ip), vehicle: saline with Tween-80) was 0 of 3 and the survivor count (T/C endpoint: mean survival time, dose: 400.0 mg/kg/injection, schedule: Q04DX002 (ip), vehicle: saline with Tween-80) was 0 of 3.

CC(C)NNCCO was tested, and the survivor count (T/C endpoint: mean survival time, dose: 200.0 mg/kg/injection, schedule: Q01DX009 (ip), vehicle: saline) was 3 of 6 and the survivor count [1] was 2 of 6.

In the case of CCC(C)C1NC(=O)C(NC(=O)c2c3nc4c(C(=O)NC5C(=O)NC(C(C)CC)C(=O)N6CCCC6C(=O)N(C)CC(=O)N(C)C(C(C)C)C(=O)OC5C)ccc(C)c4oc-3c(C)c(=O)c2N)C(C)OC(=O)C(C(C)C)N(C)C(=O)CN(C)C(=O)C2CCCN2C1=O (stereo not given), the T/C (T/C endpoint: mean survival time, dose: 0.05 mg/kg/injection, schedule: Q01DX009 (ip), vehicle: saline) is reported as 142 % of control, the T/C (T/C endpoint: mean survival time, dose: 0.2 mg/kg/injection, schedule: Q01DX009 (ip), vehicle: saline) is reported as 125 % of control and the T/C (T/C endpoint: mean survival time, dose: 5.0 micrograms/kg/injection, schedule: Q01DX009 (ip), vehicle: saline) is reported as 144 % of control [5 of 6 alive]. The T/C (T/C endpoint: mean survival time, dose: 20.0 micrograms/kg/injection, schedule: Q01DX009 (ip), vehicle: saline) was 127 % of control, the T/C (T/C endpoint: mean survival time, dose: 25.0 micrograms/kg/injection, schedule: Q01DX009 (ip), vehicle: saline) was 142 % of control and the T/C (T/C endpoint: mean survival time, dose: 40.0 micrograms/kg/injection, schedule: Q01DX009 (ip), vehicle: acetone) was 138 % of control. For the same compound, the T/C (T/C endpoint: mean survival time, dose: 40.0 micrograms/kg/injection, schedule: Q01DX009 (ip), vehicle: saline) was 130 % of control, the T/C (T/C endpoint: mean survival time, dose: 400.0 micrograms/kg/injection, schedule: Q01DX001 (ip), vehicle: saline) was 130 % of control and the T/C (T/C endpoint: median survival time, dose: 50.0 micrograms/kg/injection, schedule: Q01DX009 (ip), vehicle: water) was 134 % of control. The T/C (T/C endpoint: median survival time, dose: 100.0 micrograms/kg/injection, schedule: Q01DX009 (ip), vehicle: water) was 140 % of control, the T/C (T/C endpoint: median survival time, dose: 150.0 micrograms/kg/injection, schedule: Q04DX003 (ip), vehicle: water) was 125 % of control and the T/C (T/C endpoint: median survival time, dose: 300.0 micrograms/kg/injection, schedule: Q04DX003 (ip), vehicle: water) was 136 % of control. The T/C (T/C endpoint: median survival time, dose: 400.0 micrograms/kg/injection, schedule: Q01DX001 (ip), vehicle: water) was 126 % of control, the T/C (T/C endpoint: median survival time, dose: 800.0 micrograms/kg/injection, schedule: Q01DX001 (ip), vehicle: water) was 140 % of control and the T/C (T/C endpoint: median survival time, dose: 1600.0 micrograms/kg/injection, schedule: Q01DX001 (ip), vehicle: water) was 140 % of control.

With CN1N=Nc2cccc3cccc1c23 the survivor count (T/C endpoint: mean survival time, dose: 200.0 mg/kg/injection, schedule: Q01DX009 (ip), vehicle: acetone) was 0 of 6 and the survivor count (T/C endpoint: mean survival time, dose: 400.0 mg/kg/injection, schedule: Q04DX003 (ip), vehicle: acetone) was 3 of 6.

C[N+]1(C2CCC3CCC2C3=O)CCCC1 (stereo not given) was tested, and the survivor count [2] was 0 of 6.

Oc1ccccc1C=NCCN1CC1.Oc1ccccc1C=NCCN1CC1.[Ni+2] was tested, and the survivor count (T/C endpoint: mean survival time, dose: 50.0 mg/kg/injection, schedule: Q01DX009 (ip), vehicle: saline with Tween-80) was 0 of 6, the survivor count (T/C endpoint: mean survival time, dose: 100.0 mg/kg/injection, schedule: Q01DX009 (ip), vehicle: saline with Tween-80) was 0 of 6 and the survivor count [3] was 1 of 6. For the same compound, the survivor count [1] was 0 of 6.

In the case of CC(C)(C)NC(=O)Nc1ccc(O)cc1, the survivor count (T/C endpoint: mean survival time, dose: 400.0 mg/kg/injection, schedule: Q01DX009 (ip), vehicle: saline with Tween-80) is reported as 2 of 3.

CNC(=O)Oc1cccc(N)c1 was tested, and the survivor count [2] was 0 of 6.

CN(Cc1cnc2nc(N)nc(N)c2n1)c1ccc(C(=O)NC(CCC(=O)O)C(=O)O)cc1[N+](=O)[O-] (stereo not given) was tested, and the T/C (T/C endpoint: mean survival time, dose: 1.25 mg/kg/injection, schedule: Q01DX009 (ip), vehicle: sodium bicarbonate) was 133 % of control.

For Cc1ccc2cc(N(C)C)ccc2[n+]1C, the survivor count (T/C endpoint: mean survival time, dose: 25.0 mg/kg/injection, schedule: Q04DX003 (ip), vehicle: saline) was 2 of 6, the survivor count (T/C endpoint: mean survival time, dose: 50.0 mg/kg/injection, schedule: Q04DX003 (ip), vehicle: saline) was 0 of 6 and the survivor count (T/C endpoint: mean survival time, dose: 100.0 mg/kg/injection, schedule: Q04DX003 (ip), vehicle: saline) was 0 of 6. For the same compound, the survivor count [3] was 0 of 6 and the survivor count [1] was 0 of 6.
